Assay results published in patent publication US20250332154A1, “USE OF NAPHTHOQUINE PHOSPHATE IN PREPARATION OF A MEDICAMENT FOR TREATING AUTOIMMUNE DISEASES” (SHANGHAI PHARMACEUTICALS INDUSTRY CO., LTD, priority 2022, published 2025).
Values joined by “and” are separate entries in the source; they are usually repeats but may differ in a detail not shown here. Equal values may be shown once. Where a name gives a salt, the structure may show the parent alone.

Legend:
Settings in all cases: SI = CC50/IC50
[1] = test system: mouse whole spleen lymphocytes (LPS-induced B cell activation and proliferation); test: LPS-induced lymphocyte proliferation assay (3H-thymidine); assay type: cell-based
Experimental: (§1) BALB/c mice were sacrificed by cervical dislocation, and spleens were aseptically excised to prepare whole spleen lymphocytes. The cells were adjusted to the required concentration.
(§2) A suspension of mouse spleen lymphocytes was inoculated into a 96-well plate at 5×10^5/well, and ConA (final concentration: 1 μg/ml) or LPS (final concentration: 10 μg/ml) and the above 10 concentration gradients of the compound were added. Corresponding cell control wells without ConA and LPS, as well as medicament-free stimulated control wells, were set up. The cells were cultured in a 37° C., 5% CO2 incubator for 48 hours. Eight hours before the end of the culture, ^3H-thymidine was added, and the culture continued until the end of the experiment (i.e., the aforementioned 48 hours). The cells were collected onto glass fiber membranes using a cell collector.
(§3) ConA and LPS, as mitogens, stimulated proliferation and differentiation of T and B lymphocytes, respectively. This process is similar to the activation process of lymphocytes in vivo. Therefore, mitogen-induced lymphocyte proliferation is commonly used as an indicator to evaluate functionality of lymphocytes.

[2] = test system: mouse whole spleen lymphocytes (ConA-induced T cell activation and proliferation); test: ConA-induced lymphocyte proliferation assay (3H-thymidine); assay type: cell-based
Experimental: as §1, §2, §3

[3] = test system: IL-1β; test: IL-1β production by LPS-induced RAW264.7 cells (ELISA); assay type: cell-based, mouse
Experimental: RAW264.7 cells were inoculated into a 96-well plate at 1×10^5/well and allowed to adhere to the wall for 6 hours in a 37° C., 5% CO2 incubator. […] After the cells adhered to the wall, the stimulant LPS (final concentration: 10 μg/ml) and the gradient-diluted compounds were added. A corresponding stimulation control and a cell control (without stimulation) were set up. After the end of the culture, the cell culture supernatants were collected, and the levels of TNF-α, IL-1β and IL-6 were measured by ELISA.

[4] = test system: IL-1β; test: IL-1β secretion by TLRs-L-stimulated mouse whole spleen lymphocytes (ELISA); assay type: cell-based
Experimental: (§4) BALB/c mice were sacrificed by cervical dislocation, and spleens were aseptically excised to prepare whole spleen lymphocytes. The cells were adjusted to 5×10^6 cells/ml. Hydroxychloroquine sulfate was diluted with a 3-fold gradient into 3 concentrations starting from 30 μM: 30, 10 and 3 μM; naphthoquine phosphate was diluted with a 3-fold gradient into 3 concentrations starting from 10 μM: 10, 3 and 1 μM.
(§5) Mouse spleen lymphocytes were inoculated into a 96-well plate at 100 μl/well, and the stimulant TLR4-L (final concentration: 10 μg/ml), TLR7-L (final concentration: 5 μg/ml) or TLR9-L (final concentration: 1 μM) and the compounds diluted with the above concentration gradients were added. A corresponding stimulation control and a cell control (without stimulation) were set up. The cells were cultured in a 37° C., 5% CO2 incubator for 48 hours. After the end of the culture, the cell culture supernatants were collected, and the levels of IL-1β, IL-6, and IL-10 were measured by ELISA.

[5] = test system: IgM; test: IgM secretion by TLRs-L-stimulated mouse whole spleen lymphocytes (ELISA); assay type: cell-based
Experimental: as §4
as §5, with “120” for “48”, “IgG” for “IL-1β, IL-6,”, “IgM” for “IL-10”

[6] = test system: mouse whole spleen lymphocytes; test: TLRs-L-stimulated proliferation of mouse whole spleen lymphocytes (3H-TdR); assay type: cell-based
Experimental: as §4
A suspension of mouse spleen lymphocytes was inoculated into a 96-well plate at […], and the stimulant TLR4-L (final concentration: 10 μg/ml), TLR7-L (final concentration: 5 μg/ml) or TLR9-L (final concentration: 1 μM) and compounds diluted with the above concentration gradients were added. A corresponding stimulation control and a cell control (without stimulation) were set up. The cells were cultured in a 37° C., 5% CO2 incubator for 48 hours. Eight hours before the end of culture, ^3H-TdR was added, and the culture continued until the end of the experiment. The cells were collected onto glass fiber membranes using a cell collector. 5 ml scintillation fluid was added, and the values of radioactive counts per minute were read on a Beta counter (2450 Microplate Counter, PerkinElmer).

[7] = test system: IL-6; test: IL-6 secretion by TLRs-L-stimulated purified mouse B cells (ELISA); assay type: cell-based
Experimental: (§6) BALB/c mice were sacrificed by cervical dislocation, and spleens were aseptically excised to prepare spleen lymphocytes. The cells were adjusted to 1×10^8 cells/ml, blocked with 2.4G2 (final concentration: 10 μg/ml) for 20 min, cultured with PE-CD19 (final concentration: 5 μg/ml) for 20 min, washed with MACS buffer, centrifuged at 4° C., 300G for 10 min, 100 μl anti-PE beads were added per 1×10^8 cells, incubated with 900 μl MACS buffer for 15 min, washed with MACS buffer, centrifuged at 4° C., 300G for 10 min. The supernatant was discarded. 500 μl MACS buffer was added per 1×10^8 cells to resuspend the cells. MACS column was used for separation. Magnetically labeled cells were retained on the column. The MACS column was removed from the magnetic field and then eluted.
(§7) A suspension of purified mouse B cells was inoculated into a 96-well plate at 4×10^5/well. Hydroxychloroquine sulfate was diluted with a 2-fold gradient into 3 concentrations starting from 8 μM: 8, 4 and 2 μM. Naphthoquine phosphate was diluted with a 2-fold gradient into 3 concentrations 0.5 μM.: 0.5, 0.25 and 0.125 μM. The stimulant TLR4-L (final concentration: 10 μg/ml), TLR7-L (final concentration: 5 μg/ml) or TLR9-L (final concentration: 1 μM) and gradient diluted compounds were added. A corresponding stimulation control and a cell control (without stimulation) were set up. The cells were cultured in a 37° C., 5% CO2 incubator for 48 hours. After the end of the culture, the cell culture supernatants were collected, and the levels of TNF-α, IL-1β, and IL-6 were measured by ELISA.

[8] = test system: IgG; test: IgG secretion by TLRs-L-stimulated mouse whole spleen lymphocytes (ELISA); assay type: cell-based
Experimental: as §4
as §5, with “120” for “48”, “IgG” for “IL-1β, IL-6,”, “IgM” for “IL-10”

[9] = test system: IL-6; test: IL-6 secretion by TLRs-L-stimulated mouse whole spleen lymphocytes (ELISA); assay type: cell-based
Experimental: as §4, §5

[10] = test system: purified mouse B cells; test: B cell proliferation assay, TLRs-L-stimulated purified mouse B cells (3H-TdR); assay type: cell-based
Experimental: as §6
Hydroxychloroquine sulfate was diluted 2-fold into 3 concentrations starting from 8 μM: 8, 4 and 2 μM. Naphthoquine phosphate was diluted 2-fold into 3 concentrations starting from 0.5: 0.5, 0.25 and 0.125 μM. A suspension of purified mouse B cells was inoculated into a 96-well plate at 4×10^5/well, and the stimulant TLR4-L (final concentration: 10 μg/ml), TLR7-L (final concentration: 5 μg/ml) or TLR9-L (final concentration: 1 μM) and the gradient diluted compounds were added. A corresponding stimulation control and a cell control (without stimulation) were set up. The cells were cultured in 37° C., 5% CO2 incubator for 48 hours. Eight hours before the end of the culture, ^3H-TdR was added, and the culture was continued until the end of the experiment. The cells were collected onto glass fiber membranes using a cell collector. 5 ml scintillation fluid was added, and the values of radioactive counts per minute were read on a Beta counter (2450 Microplate Counter, PerkinElmer).

[11] = test system: IgM; test: IgM secretion by TLRs-L-stimulated purified mouse B cells (ELISA); assay type: cell-based
Experimental: as §6
as §7, with “into 3 concentrations, starting from” for “into 3 concentrations starting from”, “3 concentrations starting from 0.5 μM.:” for “3 concentrations 0.5 μM.:”, “incubator for 120 hours. After” for “incubator for 48 hours. After”, “levels of IgG and IgM” for “levels of TNF-α, IL-1β, and IL-6”, “IgG and IgM were measured” for “IL-1β, and IL-6 were measured”

[12] = test system: IgG; test: IgG secretion by TLRs-L-stimulated purified mouse B cells (ELISA); assay type: cell-based
Experimental: as §6
as §7, with “into 3 concentrations, starting from” for “into 3 concentrations starting from”, “3 concentrations starting from 0.5 μM.:” for “3 concentrations 0.5 μM.:”, “incubator for 120 hours. After” for “incubator for 48 hours. After”, “levels of IgG and IgM” for “levels of TNF-α, IL-1β, and IL-6”, “IgG and IgM were measured” for “IL-1β, and IL-6 were measured”

[13] = test system: IL-10; test: IL-10 secretion by TLRs-L-stimulated mouse whole spleen lymphocytes (ELISA); assay type: cell-based
Experimental: as §4, §5

Structure (SMILES)	LPS SI [1]	ConA SI [2]	IB-1β SI [3]	IB-1β SI ([4]; TLR4-L)	IgM SI ([5]; TLR4-L)	IgM SI ([5]; TLR9-L)	Proliferation SI ([6]; TLR4-L)	Proliferation SI ([6]; TLR7-L)	Proliferation SI ([6]; TLR9-L)	IL-6 SI ([7]; TLR4-L)	IgG SI ([8]; TLR9-L)	IL-6 SI ([9]; TLR4-L)	IL-6 SI ([9]; TLR7-L)	IL-6 SI ([9]; TLR9-L)	Proliferation SI ([10]; TLR4-L)	IgM SI ([11]; TLR4-L)	IgG SI ([12]; TLR4-L)	IL-10 SI ([13]; TLR4-L)	IL-10 SI ([13]; TLR7-L)	IL-10 SI ([13]; TLR9-L)	further results
CCN(CC)CCCC(C)Nc1ccnc2cc(Cl)ccc12 (stereo not drawn) [Chloroquine Phosphate]	1.79	1.9																			
CCN(CCO)CCCC(C)Nc1ccnc2cc(Cl)ccc12 (stereo not drawn) [Hydroxychloroquine Sulfate, hydroxychloroquine sulfate]	1.69	1.5	6.96	0.843	1.066	10.754	4.079	1.422	3.066	<2.47	4.790	1.759	14.147	6.868	1.98	<2.47	<2.47	8.454	24.323	8.177	IB-1β SI ([4]; TLR9-L): 0.648; IgM SI ([5]; TLR7-L): 1.402; IgG SI ([8]; TLR4-L): 1.482; IgG SI ([8]; TLR7-L): 1.002
CC(C)(C)NCc1cc(Nc2ccnc3cc(Cl)ccc23)c2c(c1O)CCCC2.O=P(O)(O)O.O=P(O)(O)O [Naphthoquine Phosphate, Naphthoquine phosphate]	17.71	3.5	5.48	0.475	1.881	0.84	12.316	1.513	7.304	3.93	4.888	2.524	233.824	5.483	10.46	9.37	4.82	14.972	40.769	8.364	IL-6 SI ([7]; TLR7-L): 5.99 and 5.30; IL-6 SI ([7]; TLR9-L): 4.89 and 8.59; Proliferation SI ([10]; TLR7-L): 5.70 and 9.18; Proliferation SI ([10]; TLR9-L): 5.99 and 8.68; IgM SI ([11]; TLR7-L): 2.71 and <3.97; IgM SI ([11]; TLR9-L): 9.81 and 19.03; IgG SI ([12]; TLR7-L): 2.60 and <3.97; IgG SI ([12]; TLR9-L): 4.34 and 4.91
